Reference: the supplement of paper PMC11732987, “Enantioselective OTUD7B fragment discovery through chemoproteomics screening and high-throughput optimisation” (Communications Chemistry, 2025)
Some of the results follow. The data scatter; read single values as rough.

By UniProt entry, the sequences of proteins in these tests, tags left out. Where a name states a change or a piece, a line headed by the entry shows the natural chain unless it says otherwise. Residues count along the entry.
UniProt P51580: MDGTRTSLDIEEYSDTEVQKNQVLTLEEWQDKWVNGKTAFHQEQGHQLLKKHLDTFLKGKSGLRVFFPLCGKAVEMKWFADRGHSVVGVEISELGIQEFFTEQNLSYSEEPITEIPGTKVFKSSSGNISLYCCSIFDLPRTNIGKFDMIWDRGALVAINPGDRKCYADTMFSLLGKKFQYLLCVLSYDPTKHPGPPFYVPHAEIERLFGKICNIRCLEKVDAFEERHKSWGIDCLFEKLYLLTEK
UniProt Q9NV96: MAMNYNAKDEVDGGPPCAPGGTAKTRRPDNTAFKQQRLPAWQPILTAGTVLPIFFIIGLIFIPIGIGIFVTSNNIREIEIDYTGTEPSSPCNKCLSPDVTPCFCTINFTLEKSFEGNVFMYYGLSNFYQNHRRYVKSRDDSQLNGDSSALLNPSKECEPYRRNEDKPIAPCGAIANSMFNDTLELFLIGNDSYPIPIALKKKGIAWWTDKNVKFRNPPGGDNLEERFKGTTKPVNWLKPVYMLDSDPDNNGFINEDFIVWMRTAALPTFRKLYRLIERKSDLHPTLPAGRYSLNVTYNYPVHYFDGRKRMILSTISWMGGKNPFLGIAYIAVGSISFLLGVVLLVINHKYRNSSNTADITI
UniProt Q92545, 1174-1194: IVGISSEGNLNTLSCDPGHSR
UniProt Q92547, whole entry, looked up: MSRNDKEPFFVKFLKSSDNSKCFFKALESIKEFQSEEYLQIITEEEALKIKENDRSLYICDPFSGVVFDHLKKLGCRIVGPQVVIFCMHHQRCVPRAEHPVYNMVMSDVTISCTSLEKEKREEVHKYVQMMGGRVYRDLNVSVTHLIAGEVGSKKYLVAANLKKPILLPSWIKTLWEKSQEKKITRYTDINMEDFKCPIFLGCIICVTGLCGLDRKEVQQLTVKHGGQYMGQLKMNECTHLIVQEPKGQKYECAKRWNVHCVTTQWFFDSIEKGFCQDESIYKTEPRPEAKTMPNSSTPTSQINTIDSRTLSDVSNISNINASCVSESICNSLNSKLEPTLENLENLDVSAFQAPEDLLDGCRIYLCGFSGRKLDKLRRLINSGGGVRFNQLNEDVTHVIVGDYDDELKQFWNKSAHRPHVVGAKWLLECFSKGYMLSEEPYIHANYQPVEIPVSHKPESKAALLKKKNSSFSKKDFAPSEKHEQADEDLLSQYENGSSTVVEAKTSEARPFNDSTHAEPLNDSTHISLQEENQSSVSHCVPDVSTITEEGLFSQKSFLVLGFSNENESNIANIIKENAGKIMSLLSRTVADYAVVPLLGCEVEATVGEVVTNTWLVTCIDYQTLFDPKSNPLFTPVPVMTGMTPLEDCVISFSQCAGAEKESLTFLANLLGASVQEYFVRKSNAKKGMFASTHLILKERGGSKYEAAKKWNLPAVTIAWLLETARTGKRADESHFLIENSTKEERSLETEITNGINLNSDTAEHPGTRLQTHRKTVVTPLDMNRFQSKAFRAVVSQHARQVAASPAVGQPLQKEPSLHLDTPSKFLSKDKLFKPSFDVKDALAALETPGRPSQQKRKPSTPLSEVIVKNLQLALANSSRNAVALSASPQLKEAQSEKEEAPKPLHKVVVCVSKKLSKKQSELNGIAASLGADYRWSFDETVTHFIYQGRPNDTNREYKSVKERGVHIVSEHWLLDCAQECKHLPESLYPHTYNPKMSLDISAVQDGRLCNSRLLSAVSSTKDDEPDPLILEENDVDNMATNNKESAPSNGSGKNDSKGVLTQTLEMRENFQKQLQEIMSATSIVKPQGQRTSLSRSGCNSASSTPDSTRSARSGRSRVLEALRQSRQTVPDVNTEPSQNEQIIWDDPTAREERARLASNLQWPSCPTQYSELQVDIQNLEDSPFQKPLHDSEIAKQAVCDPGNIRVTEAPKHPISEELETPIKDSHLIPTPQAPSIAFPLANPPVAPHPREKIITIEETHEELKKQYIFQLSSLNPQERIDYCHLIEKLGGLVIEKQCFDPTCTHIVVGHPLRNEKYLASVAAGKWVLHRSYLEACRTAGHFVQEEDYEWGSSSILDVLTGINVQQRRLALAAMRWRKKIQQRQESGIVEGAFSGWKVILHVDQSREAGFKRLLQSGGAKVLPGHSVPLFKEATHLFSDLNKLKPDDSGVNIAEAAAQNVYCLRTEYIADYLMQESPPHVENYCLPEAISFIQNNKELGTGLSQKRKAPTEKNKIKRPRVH
UniProt Q9UKI8, 67-86: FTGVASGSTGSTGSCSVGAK
UniProt Q9BRN9: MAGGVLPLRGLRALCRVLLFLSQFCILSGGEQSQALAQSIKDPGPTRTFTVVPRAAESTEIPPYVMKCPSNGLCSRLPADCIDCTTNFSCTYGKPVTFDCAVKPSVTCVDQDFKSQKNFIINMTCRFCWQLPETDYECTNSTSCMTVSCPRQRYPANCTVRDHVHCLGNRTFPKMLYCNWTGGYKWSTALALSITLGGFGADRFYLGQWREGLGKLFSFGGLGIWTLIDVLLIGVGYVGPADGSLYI
UniProt Q14669, 188-221: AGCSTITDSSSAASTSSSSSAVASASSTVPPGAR
UniProt Q3LXA3: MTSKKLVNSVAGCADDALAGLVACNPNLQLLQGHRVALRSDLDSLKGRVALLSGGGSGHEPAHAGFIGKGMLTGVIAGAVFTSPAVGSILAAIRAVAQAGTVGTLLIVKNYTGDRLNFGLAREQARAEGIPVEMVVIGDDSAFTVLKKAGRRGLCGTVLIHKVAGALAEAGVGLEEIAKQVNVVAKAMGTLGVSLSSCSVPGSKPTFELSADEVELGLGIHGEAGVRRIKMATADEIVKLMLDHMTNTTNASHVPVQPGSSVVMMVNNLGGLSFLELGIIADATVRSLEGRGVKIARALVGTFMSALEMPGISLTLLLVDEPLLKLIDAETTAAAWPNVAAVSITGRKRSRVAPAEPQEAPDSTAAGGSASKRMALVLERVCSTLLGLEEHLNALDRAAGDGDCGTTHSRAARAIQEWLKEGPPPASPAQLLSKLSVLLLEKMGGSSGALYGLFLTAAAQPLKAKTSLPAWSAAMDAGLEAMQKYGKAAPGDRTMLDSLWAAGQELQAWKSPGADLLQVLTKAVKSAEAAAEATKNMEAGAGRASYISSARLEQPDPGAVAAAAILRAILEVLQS
UniProt A5PLN9, 308-328: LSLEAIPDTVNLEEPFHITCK
UniProt O15164, 872-891: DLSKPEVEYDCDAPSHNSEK
UniProt Q12933: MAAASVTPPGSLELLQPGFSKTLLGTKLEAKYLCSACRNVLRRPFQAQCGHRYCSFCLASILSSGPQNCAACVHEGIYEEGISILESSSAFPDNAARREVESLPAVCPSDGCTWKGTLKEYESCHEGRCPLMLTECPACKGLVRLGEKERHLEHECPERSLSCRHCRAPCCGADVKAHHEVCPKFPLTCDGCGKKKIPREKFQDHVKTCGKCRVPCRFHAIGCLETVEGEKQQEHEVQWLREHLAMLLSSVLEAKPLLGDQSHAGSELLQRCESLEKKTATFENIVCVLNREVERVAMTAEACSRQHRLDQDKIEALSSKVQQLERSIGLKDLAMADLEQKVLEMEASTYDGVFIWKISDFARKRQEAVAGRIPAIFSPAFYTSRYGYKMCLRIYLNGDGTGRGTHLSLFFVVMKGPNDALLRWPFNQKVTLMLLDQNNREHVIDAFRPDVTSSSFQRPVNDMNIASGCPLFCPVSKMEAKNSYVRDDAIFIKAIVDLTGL
UniProt Q9H2D6: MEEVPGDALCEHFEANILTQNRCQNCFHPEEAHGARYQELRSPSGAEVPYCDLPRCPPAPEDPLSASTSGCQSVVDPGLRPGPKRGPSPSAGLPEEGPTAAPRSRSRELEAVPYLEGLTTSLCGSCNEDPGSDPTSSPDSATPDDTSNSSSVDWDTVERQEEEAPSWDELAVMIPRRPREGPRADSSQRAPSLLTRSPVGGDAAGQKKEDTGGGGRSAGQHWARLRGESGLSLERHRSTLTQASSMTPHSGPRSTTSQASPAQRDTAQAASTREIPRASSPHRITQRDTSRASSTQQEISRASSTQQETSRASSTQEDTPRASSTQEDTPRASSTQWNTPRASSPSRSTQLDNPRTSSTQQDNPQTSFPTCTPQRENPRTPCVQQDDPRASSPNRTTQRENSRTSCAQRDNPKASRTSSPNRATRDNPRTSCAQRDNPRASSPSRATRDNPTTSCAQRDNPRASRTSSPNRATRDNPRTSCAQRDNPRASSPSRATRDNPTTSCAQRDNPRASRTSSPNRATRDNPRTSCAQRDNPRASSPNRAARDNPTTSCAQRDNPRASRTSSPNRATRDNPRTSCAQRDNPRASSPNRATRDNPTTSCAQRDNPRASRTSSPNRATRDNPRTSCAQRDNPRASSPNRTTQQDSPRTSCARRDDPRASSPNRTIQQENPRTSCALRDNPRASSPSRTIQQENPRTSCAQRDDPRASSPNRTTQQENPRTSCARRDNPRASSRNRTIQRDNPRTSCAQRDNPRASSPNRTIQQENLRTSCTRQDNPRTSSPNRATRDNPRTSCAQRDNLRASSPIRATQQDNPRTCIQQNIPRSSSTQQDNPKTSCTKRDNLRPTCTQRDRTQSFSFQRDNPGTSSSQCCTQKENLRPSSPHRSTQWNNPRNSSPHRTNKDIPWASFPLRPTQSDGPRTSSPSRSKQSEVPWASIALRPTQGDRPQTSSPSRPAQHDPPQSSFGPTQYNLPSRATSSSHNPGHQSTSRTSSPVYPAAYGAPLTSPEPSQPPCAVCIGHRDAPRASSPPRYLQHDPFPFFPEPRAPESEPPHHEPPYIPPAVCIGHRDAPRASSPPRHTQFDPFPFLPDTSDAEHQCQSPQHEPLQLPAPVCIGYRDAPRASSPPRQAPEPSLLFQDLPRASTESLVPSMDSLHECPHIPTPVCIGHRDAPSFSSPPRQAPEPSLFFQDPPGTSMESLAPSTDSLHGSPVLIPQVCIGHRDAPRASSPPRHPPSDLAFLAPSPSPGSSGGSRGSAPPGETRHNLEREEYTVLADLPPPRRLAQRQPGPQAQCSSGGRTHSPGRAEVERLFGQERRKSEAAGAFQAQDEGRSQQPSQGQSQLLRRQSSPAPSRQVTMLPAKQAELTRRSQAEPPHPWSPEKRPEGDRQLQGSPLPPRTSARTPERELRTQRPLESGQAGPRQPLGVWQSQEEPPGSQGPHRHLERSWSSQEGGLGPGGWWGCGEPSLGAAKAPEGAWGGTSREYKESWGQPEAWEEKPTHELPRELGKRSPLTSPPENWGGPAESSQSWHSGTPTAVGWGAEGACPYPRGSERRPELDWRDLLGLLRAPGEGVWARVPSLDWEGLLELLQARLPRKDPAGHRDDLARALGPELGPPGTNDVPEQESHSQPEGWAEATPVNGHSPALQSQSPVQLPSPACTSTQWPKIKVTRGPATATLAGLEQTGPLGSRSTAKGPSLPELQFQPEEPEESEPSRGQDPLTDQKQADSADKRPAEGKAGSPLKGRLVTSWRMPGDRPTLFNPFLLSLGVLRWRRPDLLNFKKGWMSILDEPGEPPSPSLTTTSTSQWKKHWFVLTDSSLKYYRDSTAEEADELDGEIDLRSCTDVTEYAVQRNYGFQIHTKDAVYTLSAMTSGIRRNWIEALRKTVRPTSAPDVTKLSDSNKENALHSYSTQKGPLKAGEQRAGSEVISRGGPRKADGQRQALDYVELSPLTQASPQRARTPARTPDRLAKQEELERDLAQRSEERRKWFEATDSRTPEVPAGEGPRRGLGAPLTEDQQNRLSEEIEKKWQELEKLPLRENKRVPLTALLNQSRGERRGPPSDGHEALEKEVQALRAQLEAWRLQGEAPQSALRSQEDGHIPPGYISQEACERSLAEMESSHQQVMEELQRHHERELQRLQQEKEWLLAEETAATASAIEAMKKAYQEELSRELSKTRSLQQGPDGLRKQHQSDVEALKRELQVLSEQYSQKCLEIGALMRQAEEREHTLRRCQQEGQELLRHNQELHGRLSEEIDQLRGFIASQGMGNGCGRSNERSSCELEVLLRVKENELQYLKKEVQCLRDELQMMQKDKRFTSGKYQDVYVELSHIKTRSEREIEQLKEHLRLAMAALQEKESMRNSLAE
UniProt Q9H497: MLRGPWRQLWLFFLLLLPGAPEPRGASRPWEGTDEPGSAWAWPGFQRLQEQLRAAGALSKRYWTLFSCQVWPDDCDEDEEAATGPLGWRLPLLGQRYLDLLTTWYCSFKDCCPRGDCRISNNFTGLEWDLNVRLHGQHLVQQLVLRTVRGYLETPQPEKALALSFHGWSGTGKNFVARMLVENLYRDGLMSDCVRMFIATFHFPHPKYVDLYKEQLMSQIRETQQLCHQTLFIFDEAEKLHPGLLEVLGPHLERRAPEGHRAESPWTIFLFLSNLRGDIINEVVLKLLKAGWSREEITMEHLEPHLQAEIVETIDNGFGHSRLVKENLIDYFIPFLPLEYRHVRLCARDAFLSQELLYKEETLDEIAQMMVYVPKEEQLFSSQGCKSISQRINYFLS
UniProt Q8TBR7: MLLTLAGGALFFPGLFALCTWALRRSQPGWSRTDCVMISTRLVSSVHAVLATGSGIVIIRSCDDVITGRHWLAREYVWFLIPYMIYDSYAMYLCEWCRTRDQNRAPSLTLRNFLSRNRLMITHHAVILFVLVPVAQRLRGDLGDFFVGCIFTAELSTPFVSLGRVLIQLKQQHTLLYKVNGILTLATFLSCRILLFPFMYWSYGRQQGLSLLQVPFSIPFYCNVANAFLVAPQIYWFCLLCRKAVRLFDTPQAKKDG

Assays:
[1] = compound: ClCC(=O)N[C@@H]1CCCc2ccccc12; experiment: log2 mean competition ratio of IA-DTB cysteine labelling (DMSO/compound) (log2 ratio); higher = stronger cysteine engagement by compound; details: treatment time: 4 h, cell line lysate: HEK293T
Procedure: (§1)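 IA-DTB competitive cysteine chemoproteomics in HEK293T RIPA lysate. Lysates were treated with compound 29 or 30 at 50 or 200 µM for 4 h, then IA-DTB (500 µM, 1 h), trypsin-digested, NeutrAvidin-enriched and analysed by diaPASEF. Competition ratio = intensity DMSO / intensity compound (n=4 treated, n=64 DMSO); binding: mean log2 CR ≥ 1 and p ≤ 0.05 plus QC filters. Target is the cysteine site.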

[2] = compound: ClCC(=O)N[C@H]1CCCc2ccccc12; experiment: as above; details: treatment time: 4 h, cell line lysate: HEK293T
Procedure: as §1

| Target | log2 mean competition ratio ([1]; 50 µM) | log2 mean competition ratio ([1]; 200 µM) | log2 mean competition ratio ([2]; 50 µM) | log2 mean competition ratio ([2]; 200 µM) |
| --- | --- | --- | --- | --- |
| TPX2 C100 (UniProt Q9ULW0) | 0.298 | -0.23 | 0.0493 | -0.28 |
| TONSL C124 (UniProt Q96HA7) | -0.0877 | 0.231 | -0.313 | 0.00626 |
| TPMT C234 (UniProt P51580) | 0.222 | -0.248 | 0.217 | -0.213 |
| TMEM30A C91 (UniProt Q9NV96) | -0.0891 | 0.399 | -0.122 | -0.103 |
| TMLHE C103 (UniProt Q9NVH6) | -0.0659 | 0.564 | -0.169 | 0.0465 |
| TMEM131 C1188 (UniProt Q92545) | 0.237 | 0.481 | 0.52 | 0.283 |
| TMEM259 C246 (UniProt Q4ZIN3) | -0.303 | 0.0886 | -0.111 | 0.418 |
| TMA16 C162 (UniProt Q96EY4) | 0.104 | -0.422 | 0.285 | -0.366 |
| TOPBP1 C1337 (UniProt Q92547) | 0.182 | -0.14 | 0.107 | -0.0176 |
| TNFRSF10D C244 (UniProt Q9UBN6) | -0.233 | 0.239 | -0.168 | -0.0138 |
| TMPO C280 | 0.0782 | 0.286 | 0.334 | 0.399 |
| TOMM34 C222 (UniProt Q15785) | 0.00118 | 0.0822 | 0.3 | 0.0831 |
| TLN1 C732 (UniProt Q9Y490) | -0.464 | 0.316 | -0.0483 | 0.16 |
| TRIT1 C298 (UniProt Q9H3H1) | 0.421 | 0.0179 | -0.136 | -0.207 |
| TMEM50B C89 | 0.0852 | -0.0104 | 0.241 | 0.086 |
| TLK1 C81 (UniProt Q9UKI8) | -0.0308 | -0.129 | 0.215 | -0.213 |
| TOPBP1 C276 (UniProt Q92547) | 0.0617 | -0.0193 | -0.528 | -0.0721 |
| TRAP1 C501 (UniProt Q12931) | 0.404 | -0.0153 | 0.426 | -0.0128 |
| TIMELESS C1126 (UniProt Q9UNS1) | -0.296 | 0.346 | 0.0509 | 0.0147 |
| TMEM120A C47 (UniProt Q9BXJ8) | 0.115 | -0.0482 | -0.0546 | 0.0274 |
| TRIM33 C276 | -0.119 | -0.374 | 0.313 | -0.967 |
| TRERF1 C1065 | -0.233 | 0.315 | 0.0759 | 0.427 |

Complete entries, quoted from the list. Values in the order: log2 mean competition ratio ([1]; 50 µM) | log2 mean competition ratio ([1]; 200 µM) | log2 mean competition ratio ([2]; 50 µM) | log2 mean competition ratio ([2]; 200 µM)
TONSL C124 (UniProt Q96HA7) is listed as -0.0877 | 0.231 | -0.313 | 0.00626
TLN1 C732 (UniProt Q9Y490) is listed as -0.464 | 0.316 | -0.0483 | 0.16

(list continues)

| Target | log2 mean competition ratio ([1]; 50 µM) | log2 mean competition ratio ([1]; 200 µM) | log2 mean competition ratio ([2]; 50 µM) | log2 mean competition ratio ([2]; 200 µM) |
| --- | --- | --- | --- | --- |
| TIPRL C14 (UniProt O75663) | -0.106 | -0.539 | -0.0884 | -0.202 |
| TMLHE C393 (UniProt Q9NVH6) | 0.135 | 0.0387 | 0.241 | -0.0615 |
| TOP2B C125 (UniProt Q02880) | 0.125 | -0.142 | 0.0578 | 0.0903 |
| TMSB15A;TMSB15B C41;(C41) | 0.0123 | -0.184 | -0.0749 | 0.0971 |
| TMEM143 C408 (UniProt Q96AN5) | -0.0104 | -0.262 | -0.0515 | -0.2 |
| TNRC6B C800 (UniProt Q9UPQ9) | -0.136 | -0.0315 | 0.715 | 0.032 |
| TRIM33 C786 | -0.116 | 0.557 | -0.692 | 0.176 |
| TM2D3 C166 (UniProt Q9BRN9) | -0.268 | 0.0236 | 0.0933 | 0.381 |
| TRIP12 C190 (UniProt Q14669) | -0.487 | -0.0937 | -0.731 | -0.0402 |
| TKFC C382 (UniProt Q3LXA3) | 0.596 | 0.332 | 0.488 | 0.45 |
| TRAPPC13 C327 (UniProt A5PLN9) | 0.0938 | -0.14 | -0.27 | 0.348 |
| TMEM87A C89 (UniProt Q8NBN3) | -0.0375 | -0.276 | -0.256 | -0.25 |
| TLCD1 C231 (UniProt Q96CP7) | 0.0172 | 0.121 | -0.161 | 0.11 |
| TPR C1068 (UniProt P12270) | -0.269 | -0.11 | -0.244 | 0.281 |
| TMEM209 C422 (UniProt Q96SK2) | 0.214 | 0.00633 | 0.203 | 0.0127 |
| TRIM24 C882 (UniProt O15164) | -0.259 | -0.068 | -0.048 | -0.276 |
| TRAF2 C303 (UniProt Q12933) | -0.0886 | 0.0527 | -0.0301 | -0.0339 |
| TRIOBP C2280 (UniProt Q9H2D6) | 0.387 | 0.0839 | 0.0697 | 0.228 |
| TOR3A C385 (UniProt Q9H497) | -0.0949 | 0.113 | 0.0381 | 0.126 |
| TLCD3A C35 (UniProt Q8TBR7) | 0.192 | 0.19 | 0.0403 | 0.0721 |
| TOP2A C392 (UniProt P11388) | 0.293 | 0.634 | 0.195 | 0.691 |
| TRDMT1 C222 (UniProt O14717) | -0.576 | -1.38 | -0.204 | -1.07 |
